At least one compound was matched to its structure with a doubt left.
Experiments:
[1] = system: adipocytes in radiated skin; experiment: Ex vivo radiation and tissue culture of dorsal skin from adipocyte lineage-tracing mice; set-up: species or system mouse; details: 30 Gy, cultured 7 days with 10 μM rosiglitazone, relative to no rosiglitazone control; preliminary
[2] = system: excisional cutaneous defects on the dorsum; details: Siebert et al, cited from earlier work
[3] = system: incision in radiated scalp; experiment: Planned: topical rosiglitazone on incisional healing in the radiated field; assay type: in vivo, mouse; details: 1-cm incision in radiated scalp, expected outcome
TNFα-treated AdMSCs = experiment: Adipogenic gene expression in TNFα-treated AdMSCs; assay type: cell-based, mouse; details: FIG. 6
radiated scalp = experiment: Planned: topical rosiglitazone on radiation-induced tissue fibrosis of mouse scalp; assay type: in vivo; details: expected outcome
dermal adipose tissue = details: Scherer et al [Ref. 22]; cited from earlier work
dermal fibroblasts = dermal fibroblasts in scleroderma [Ref. 26]; cited from earlier work
[4] = ob/ob mice, systemic, v. untreated ob/ob mice
[5] = topical rosiglitazone in CeraVe cream daily, scalp 30 Gy in 6 fractions

In the case of `CN(CCOc1ccc(CC2SC(=O)NC2=O)cc1)c1ccccn1` (stereo not shown) [rosiglitazone], the “Histologic presence of adipocytes in radiated skin” value [1] is given as “appeared to increase the histologic presence of adipocytes in radiated skin”, the “Re-epithelialization (histology)” value [2, 4] is given as “improved re-epithelialization” and the “Time to healing of excisional cutaneous defects” value [2, 4] is given as “reduced time to healing of excisional cutaneous defects”. For the same molecule, the “Adipocyte organization within healing wounds” value ([2]; ob/ob mice, systemic) was “improved adipocyte organization”, the Dorsal wound healing ([2]; obese mice (ob/ob), systemic delivery) was “improvement in dorsal wound healing” and the “Collagen deposition across the incision line” value [3] was “increased collagen deposition across the incision line”. For the same molecule, the Collagen organization [3] was “improved collagen organization”, the Epithelialization [3] was “increased epithelialization” and the “Presence of fibroblasts and myofibroblasts along the incision line” value [3] was “increased presence of fibroblasts and myofibroblasts along the incision line”. For the same molecule, the Time to healing [3] was “reduced time to healing”, the “Adipogenic gene expression among TNFα-treated AdMSCs” value (TNFα-treated AdMSCs) was “rescued adipogenic gene expression” and the “Adipogenesis, fibrosis and fibrogenic signaling in treated tissues” value (radiated scalp; [5]) was “adipogenesis and reduced fibrosis and fibrogenic signaling”. The “Gross morphologic changes (hair loss, ulceration)” value (radiated scalp; [5]) was “reduced gross morphologic changes including hair loss and incidence and size of ulceration”, the “Adipogenic signaling of mG+ and mT+ cells” value (radiated scalp; topical rosiglitazone, radiated field) was “both mG+ and mT+ cells exhibit adipogenic signaling” and the “Dermal adipose tissue effect of topical application” value (dermal adipose tissue) was “induces dermal adipose tissue hyperplasia localized to the area of treatment”. The “Expression of pro-fibrotic peptides” value (dermal fibroblasts) was “reduces expression of pro-fibrotic peptides including Ctgf, α-SMA, and Col1”.

Reference: patent US20250352528A1, “TOPICAL ROSIGLITAZONE FOR RADIATION-INDUCED SKIN INJURY” (The Brigham and Women's Hospital, Inc., priority 2022, published 2025)
